Results on two substances are retold here after PMC11090508.

Chains of the proteins cited; added tags and fusions are not shown.
UniProt P05198: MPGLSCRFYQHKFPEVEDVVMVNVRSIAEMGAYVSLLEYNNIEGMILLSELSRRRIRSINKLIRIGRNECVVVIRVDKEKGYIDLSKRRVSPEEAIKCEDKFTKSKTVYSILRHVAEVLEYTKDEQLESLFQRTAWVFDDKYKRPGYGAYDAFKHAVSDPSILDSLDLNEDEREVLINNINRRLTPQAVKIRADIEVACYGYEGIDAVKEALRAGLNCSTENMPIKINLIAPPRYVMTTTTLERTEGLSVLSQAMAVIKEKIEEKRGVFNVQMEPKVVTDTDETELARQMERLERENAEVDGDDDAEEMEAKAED
UniProt P60842: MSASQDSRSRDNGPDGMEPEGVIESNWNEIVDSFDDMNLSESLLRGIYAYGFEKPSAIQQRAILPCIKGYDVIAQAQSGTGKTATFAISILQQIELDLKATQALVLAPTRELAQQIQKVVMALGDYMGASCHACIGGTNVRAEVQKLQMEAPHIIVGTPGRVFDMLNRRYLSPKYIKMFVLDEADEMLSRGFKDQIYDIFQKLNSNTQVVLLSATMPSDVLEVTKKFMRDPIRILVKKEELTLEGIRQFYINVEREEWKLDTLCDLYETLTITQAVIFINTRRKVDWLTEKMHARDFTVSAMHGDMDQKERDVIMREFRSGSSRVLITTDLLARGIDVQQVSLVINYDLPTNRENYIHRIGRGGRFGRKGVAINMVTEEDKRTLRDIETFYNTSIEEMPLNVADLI

This test addresses T1, FLAG-BirA*-IBTK (inhibitor of Bruton's tyrosine kinase) (UniProt Q9P2D0).
T1 sequence: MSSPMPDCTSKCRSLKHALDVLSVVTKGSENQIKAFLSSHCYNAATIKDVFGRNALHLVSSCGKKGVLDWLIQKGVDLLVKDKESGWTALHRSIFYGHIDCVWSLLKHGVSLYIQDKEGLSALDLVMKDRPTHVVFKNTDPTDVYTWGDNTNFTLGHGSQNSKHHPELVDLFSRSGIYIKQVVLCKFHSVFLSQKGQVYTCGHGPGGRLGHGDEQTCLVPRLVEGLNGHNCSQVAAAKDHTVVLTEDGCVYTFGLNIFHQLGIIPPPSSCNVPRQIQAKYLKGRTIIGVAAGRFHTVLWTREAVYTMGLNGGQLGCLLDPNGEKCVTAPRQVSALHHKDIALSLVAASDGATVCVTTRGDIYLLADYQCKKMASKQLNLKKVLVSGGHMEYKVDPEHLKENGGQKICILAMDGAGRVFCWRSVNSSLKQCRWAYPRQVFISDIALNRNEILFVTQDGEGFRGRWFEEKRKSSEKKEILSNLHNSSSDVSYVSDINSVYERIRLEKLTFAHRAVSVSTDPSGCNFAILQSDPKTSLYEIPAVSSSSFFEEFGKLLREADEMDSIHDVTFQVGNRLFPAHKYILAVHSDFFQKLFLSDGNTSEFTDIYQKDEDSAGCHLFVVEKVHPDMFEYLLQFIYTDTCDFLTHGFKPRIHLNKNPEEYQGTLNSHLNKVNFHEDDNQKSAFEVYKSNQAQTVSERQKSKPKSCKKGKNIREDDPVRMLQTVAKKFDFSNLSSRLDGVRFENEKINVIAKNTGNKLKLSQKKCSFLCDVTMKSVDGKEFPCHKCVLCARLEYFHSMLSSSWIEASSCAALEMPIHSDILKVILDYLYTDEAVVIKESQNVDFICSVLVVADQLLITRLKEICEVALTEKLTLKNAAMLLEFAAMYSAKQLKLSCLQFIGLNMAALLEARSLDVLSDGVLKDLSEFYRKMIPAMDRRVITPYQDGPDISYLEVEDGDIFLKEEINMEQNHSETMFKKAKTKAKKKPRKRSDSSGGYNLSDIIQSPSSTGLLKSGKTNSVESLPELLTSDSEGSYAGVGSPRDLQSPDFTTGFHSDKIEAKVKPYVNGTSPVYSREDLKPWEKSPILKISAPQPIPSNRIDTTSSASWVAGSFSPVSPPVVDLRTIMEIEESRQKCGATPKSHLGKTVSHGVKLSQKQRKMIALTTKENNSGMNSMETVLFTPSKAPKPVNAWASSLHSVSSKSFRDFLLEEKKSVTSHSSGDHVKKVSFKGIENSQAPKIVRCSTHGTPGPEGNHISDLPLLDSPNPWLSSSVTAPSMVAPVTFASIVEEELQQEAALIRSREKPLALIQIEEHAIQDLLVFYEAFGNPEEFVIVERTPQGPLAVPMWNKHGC
The test can be described thus: affinity purification with mass spectrometry; FLAG-BirA*-IBTK from DOX-induced Flp-In T-REx 293 cells; NP-40 lysis buffer (0.1% NP-40); anti-FLAG M2 agarose, eluted with FLAG peptide; SDS-PAGE, gel bands sequenced by MS.

No constants are given. Whether binding was seen depends on the method and setting. In cells and extracts the contact can be indirect. Here binding means that the protein was enriched with, or labelled near, the bait; the list need not be complete. Tags and fused reporters may be left off the sequences shown.

On to “eIF2α, endogenous (from UniProt P05198 1-315)”, for which the binding result is recorded as “binds”.
Turning to “eIF4A1, endogenous (from UniProt P60842 1-406)”, the binding entry is reported as “binds”.
